Experimental data as given in publication PMC3141063.

Chains of the proteins cited; added tags and fusions are not shown. Lines headed by an entry give the natural chain unless they say otherwise; changes in a name come on top.
UniProt Q583J0: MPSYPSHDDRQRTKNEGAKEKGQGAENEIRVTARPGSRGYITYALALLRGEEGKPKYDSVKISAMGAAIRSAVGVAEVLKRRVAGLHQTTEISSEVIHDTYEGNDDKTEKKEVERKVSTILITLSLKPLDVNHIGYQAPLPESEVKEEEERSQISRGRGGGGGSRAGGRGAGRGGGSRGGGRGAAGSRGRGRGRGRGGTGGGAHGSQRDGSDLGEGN
UniProt Q583I9: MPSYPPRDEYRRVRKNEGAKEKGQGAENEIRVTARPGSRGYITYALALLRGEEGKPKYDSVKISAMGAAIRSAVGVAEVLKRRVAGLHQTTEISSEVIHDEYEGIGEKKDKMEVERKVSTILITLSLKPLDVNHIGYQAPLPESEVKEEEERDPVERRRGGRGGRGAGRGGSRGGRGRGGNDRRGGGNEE

Key:
[1] = target: T1, HA-Alba2 (Trypanosoma brucei) (UniProt Q385X2); assay: co-IP; as the CoIP with HA-tagged baits, but RNase inhibitor replaced with RNase A (5-20 µg; 10 to 40 µg/ml) in the extract
T1 sequence: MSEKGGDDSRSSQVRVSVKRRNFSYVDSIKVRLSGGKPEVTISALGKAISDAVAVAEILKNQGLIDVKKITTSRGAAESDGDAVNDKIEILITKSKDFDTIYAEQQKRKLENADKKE

[2] = target: T1, HA-Alba2 (Trypanosoma brucei); assay: co-IP; HA-tagged bait induced with tetracycline in procyclic T. brucei; extract in IP buffer (20 mM Tris-HCl pH 7.6, 150 mM NaCl, 1 mM EDTA, 1 mM DTT, 0.5% NP-40) with RNase inhibitor; anti-HA affinity matrix, 2 h, 4°C; immunoblot with Alba-specific or anti-P0 antibodies; cycloheximide or puromycin before the CoIP did not affect Alba3/eIF4E4
[3] = target: HA-Alba4 (Trypanosoma brucei) (UniProt Q583J0); assay: co-IP; as the CoIP with HA-tagged baits, but RNase inhibitor replaced with RNase A (5-20 µg; 10 to 40 µg/ml) in the extract
[4] = target: HA-Alba4 (Trypanosoma brucei) (UniProt Q583J0); assay: co-IP; HA-tagged bait induced with tetracycline in procyclic T. brucei; extract in IP buffer (20 mM Tris-HCl pH 7.6, 150 mM NaCl, 1 mM EDTA, 1 mM DTT, 0.5% NP-40) with RNase inhibitor; anti-HA affinity matrix, 2 h, 4°C; immunoblot with Alba-specific or anti-P0 antibodies; cycloheximide or puromycin before the CoIP did not affect Alba3/eIF4E4
[5] = target: PTP-tagged eIF4G3 (Trypanosoma brucei); assay: co-IP; PTP-tagged versions of eIF4G3 as bait; no figure and no further details
[6] = target: HA-tagged eIF4G3 (Trypanosoma brucei); assay: co-IP; HA-tagged bait induced with tetracycline in procyclic T. brucei; extract in IP buffer (20 mM Tris-HCl pH 7.6, 150 mM NaCl, 1 mM EDTA, 1 mM DTT, 0.5% NP-40) with RNase inhibitor; anti-HA affinity matrix, 2 h, 4°C; immunoblot with Alba-specific or anti-P0 antibodies; cycloheximide or puromycin before the CoIP did not affect Alba3/eIF4E4

Molecule: ribosomal stalk protein P0
- binding [1]: binds
- binding [2]: binds

Molecule: Alba3 (from UniProt Q583I9)
- binding [3]: binds
- binding [4]: binds

B1: Alba2 (protein, UniProt Q385X2 1-117)
chain: T1 sequence
- binding [5]: no binding
- binding [3]: binds
- binding [4]: binds
- binding [6]: no binding

B2: Alba1 (protein, UniProt Q385X1 1-125)
chain: MTTGKSDRPRNSVRVGYRGTKFLFVDITKHLLHDGEKEVYVSALGGAINEAVSVVEMLKDQQMVVVKKITTSRQVSEEPDDGPVDKIEIVVTKADGFDAKYEEQQKAREAKRLEKEKNEKEKATA
- binding [5]: no binding
- binding [6]: no binding

No constants are given. Whether binding was seen depends on the method and setting. In cells and extracts the contact can be indirect. For some of these results: A result given as binding can be weak or reduced; the word gives no strength. For some of these results: Where a sequence is shown, tags or fusion partners need not be part of it.
